# Laboratory results as given in the supplement of paper PMC8326762, “A Small Molecule Inhibitor of Pex3–Pex19 Interaction Disrupts Glycosome Biogenesis and Causes Lethality in Trypanosoma brucei” (Frontiers in Cell and Developmental Biology, 2021).
# Counter-ions that a name gives are not always drawn. The list shows a part of the results. The data scatter; read single values as rough.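 Yeast growth was read as optical density at 600 nm. The two-hybrid strains grew without histidine, so growth needed the Pex3–Pex19 binding; a compound counted as trypanosome-selective if it cut growth of the trypanosome-pair strain by more than 65% and the human-pair strain by less than 65%.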
# What was measured:
# [1] = tested on: Saccharomyces cerevisiae HF7c pdr5Δ; assay: general growth inhibition of yeast HF7c pdr5Δ in -Leu -Trp medium, relative to DMSO; higher = stronger general growth inhibition; conditions: 100 µM; 24 h
# [2] = tested on: human PEX3-PEX19 interaction (yeast two-hybrid); assay: growth inhibition of yeast two-hybrid strain reporting HsPex3-HsPex19 interaction, relative to DMSO; higher = stronger inhibition of human Pex3-Pex19 interaction / growth; conditions: 100 µM; 24 h; 3-aminotriazole 10 mM
# [3] = tested on: T. brucei Pex3-Pex19 interaction (yeast two-hybrid); assay: growth inhibition of yeast two-hybrid strain reporting TbPex3-TbPex19 interaction, relative to DMSO; higher = stronger inhibition of T. brucei Pex3-Pex19 interaction / growth; conditions: 100 µM; 24 h
SMILES,general growth inhibition [1],growth inhibition [2],growth inhibition [3]
CC(=O)Oc1cc(C(C)C)c(OCCN(C)C)cc1C [Moxisylyte hydrochloride],48.1%,34.6%,68%
CNC(=N)NCCC[C@H](N)C(=O)O [NG-Monomethyl-L-arginine acetate],48.5%,48.4%,66.4%
CC(C)(C)NCC(O)c1ccc(O)c(CO)c1 (centres undefined) [Albuterol hemisulfate],53.1%,46%,66.2%
Cn1cnc2c1c(=O)[nH]c(=O)n2C [Theobromine],55.2%,50.9%,63.7%
O=C(c1ccc2c(c1)OCCO2)N1CCCCC1,25.6%,41.9%,52%
CC(C)[N+]1(C)[C@@H]2CC[C@H]1C[C@@H](OC(=O)C(CO)c1ccccc1)C2 (some centres undefined) [Ipratropium bromide],38.2%,41.3%,63.1%
CCN1C(=O)C=CC1=O [N-Ethylmaleimide],28.4%,39.2%,62.6%
O=C(c1ccccc1)c1ccc2n1CCC2C(=O)O (centres undefined) [Ketorolac tris salt],49.5%,40.5%,58.6%
NCCCNCCCCNCCCN [Spermine tetrahydrochloride],50.7%,43.2%,70.5%
CN1CCC(=C2c3ccccc3C=Cc3ccccc32)CC1 [Cyproheptadine hydrochloride],33.5%,38%,50.1%
CN(C)CC/C=C1/c2ccccc2Sc2ccc(Cl)cc21 [Chlorprothixene hydrochloride],25.3%,29.1%,50.8%
"NC(=O)CNCCC(c1ccccc1)c1ccccc1 [N-(3,3-Diphenylpropyl)glycinamide]",9.09%,27.2%,45.5%
"O=c1[nH]ccc2c(O)cccc12 [1,5-Isoquinolinediol]",46.9%,45.3%,62.5%
O=C1Nc2ccc(I)cc2/C1=C/c1cc(Br)c(O)c(Br)c1,20.3%,9.37%,34%
O=C(OCCN1CCOCC1)C1(c2ccccc2)CCCCC1,36.5%,41.2%,60%
C[C@]12C=CC(=O)C=C1CC[C@@H]1C2=CC[C@]2(C)[C@@H](C(=O)CN3CCN(c4cc(N5CCCC5)nc(N5CCCC5)n4)CC3)CC[C@@H]12,36.6%,29.9%,69.1%
"CCCn1c(=O)c2[nH]c(-c3ccc(S(=O)(=O)O)cc3)nc2n(CCC)c1=O [1,3-Dipropyl-8-p-sulfophenylxanthine]",35.4%,45.2%,64.1%
"Cn1c(=O)c2[nH]c(C3CCCC3)nc2n(C)c1=O [8-Cyclopentyl-1,3-dimethylxanthine]",21.1%,27.1%,54.5%
CC(=O)N1CCN(c2ccc(OCC3COC(Cn4ccnc4)(c4ccc(Cl)cc4Cl)O3)cc2)CC1 (centres undefined) [Ketoconazole],85.4%,80.5%,80.8%
CCOC(=O)c1cnc2c(cnn2CC)c1NN=C(C)C [Etazolate hydrochloride],42%,35.3%,38.2%
CCCc1c(OCCCOc2ccc(OCC(=O)O)cc2)ccc(C(C)=O)c1O,46.3%,30.4%,47.4%
Cc1cccc(C#Cc2ccccc2)n1 [6-Methyl-2-(phenylethynyl)pyridine hydrochloride],48.9%,40%,57.1%
OCCN1CCN(CCCN2c3ccccc3C=Cc3ccccc32)CC1 [Opipramol dihydrochloride],52.1%,43.2%,66.2%

# In the list so far, 9 contain nitrogen in an aromatic ring.
SMILES,general growth inhibition [1],growth inhibition [2],growth inhibition [3]
Cn1cnc2c1c(=O)[nH]c(=O)n2C [Theobromine],55.2%,50.9%,63.7%
O=C(c1ccccc1)c1ccc2n1CCC2C(=O)O (centres undefined) [Ketorolac tris salt],49.5%,40.5%,58.6%
"O=c1[nH]ccc2c(O)cccc12 [1,5-Isoquinolinediol]",46.9%,45.3%,62.5%
C[C@]12C=CC(=O)C=C1CC[C@@H]1C2=CC[C@]2(C)[C@@H](C(=O)CN3CCN(c4cc(N5CCCC5)nc(N5CCCC5)n4)CC3)CC[C@@H]12,36.6%,29.9%,69.1%
"CCCn1c(=O)c2[nH]c(-c3ccc(S(=O)(=O)O)cc3)nc2n(CCC)c1=O [1,3-Dipropyl-8-p-sulfophenylxanthine]",35.4%,45.2%,64.1%
"Cn1c(=O)c2[nH]c(C3CCCC3)nc2n(C)c1=O [8-Cyclopentyl-1,3-dimethylxanthine]",21.1%,27.1%,54.5%
CC(=O)N1CCN(c2ccc(OCC3COC(Cn4ccnc4)(c4ccc(Cl)cc4Cl)O3)cc2)CC1 (centres undefined) [Ketoconazole],85.4%,80.5%,80.8%
CCOC(=O)c1cnc2c(cnn2CC)c1NN=C(C)C [Etazolate hydrochloride],42%,35.3%,38.2%
Cc1cccc(C#Cc2ccccc2)n1 [6-Methyl-2-(phenylethynyl)pyridine hydrochloride],48.9%,40%,57.1%

# Next part.

SMILES,general growth inhibition [1],growth inhibition [2],growth inhibition [3]
C[C@@H](O)[C@H]1C(=O)N2C(C(=O)O)=C(SCCNC=N)C[C@H]12 [Imipenem monohydrate],51.6%,47.2%,56.5%
COc1ccccc1OCCNCC(O)COc1cccc2[nH]c3ccccc3c12 (centres undefined) [Carvedilol],22.7%,41.5%,50%
Fc1ccc(C(c2ccc(F)cc2)N2CCN(C/C=C/c3ccccc3)CC2)cc1 [Flunarizine dihydrochloride],86.2%,84.8%,71.3%
CC(C)(C)c1cc(/C=C(\C#N)C(N)=S)cc(C(C)(C)C)c1O [Tyrphostin AG 879],42.4%,22.5%,41.5%
CCn1c(=O)[nH]c2cc(Cl)c(Cl)cc21,35.9%,40%,37.5%
COc1cccc(NC(=O)/C=C/c2ccc(Cl)cc2)c1,41.2%,33%,41.2%
N[C@@H](Cc1c[nH]c2ccccc12)C(=O)O [L-Tryptophan],50.4%,45.5%,62.9%
"C#CCn1c(=O)c2c(ncn2C)n(C)c1=O [3,7-Dimethyl-1-propargylxanthine]",31.7%,43.2%,68.7%
CC(=O)CCCCn1c(=O)c2c(ncn2C)n(C)c1=O [Pentoxifylline],48.7%,55.1%,65.1%
Cc1nc2c(OCc3ccccc3)cccn2c1CC#N,44.5%,38.7%,67.3%
C1COC(NC(C2CC2)C2CC2)=N1 [Rilmenidine hemifumarate],48.8%,46.1%,67.1%
C[N+](C)(C)CC=O [Betaine aldehyde chloride],51%,38.2%,60.4%
CC(N/C(=N\C#N)Nc1ccncc1)C(C)(C)C (centres undefined) [Pinacidil],44.1%,44.2%,58.5%
CCCCC#Cc1nc(NC)c2ncn([C@@H]3O[C@H](CO)[C@@H](O)[C@H]3O)c2n1,42.7%,48.8%,66.1%
CN(C)c1nc(N(C)C)nc(N(C)C)n1 [Altretamine],8.34%,10.9%,30.7%
"Nc1ncnc2c1ncn2[C@@H]1O[C@H](COP(=O)(O)CP(=O)(O)OP(=O)(O)O)[C@H](O)C1O (stereo partly drawn) [alpha,beta-Methylene adenosine 5'-triphosphate dilithium]",55.1%,47.6%,66.5%
NS(=O)(=O)C#Cc1ccccc1 [Pifithrin-mu],63.1%,49.8%,68%
CCN1/C(=C/C(C)=O)Sc2ccc(OC)cc21,49.9%,43.1%,57.1%
CC(C)(C(=O)O)c1ccc(C(O)CCCN2CCC(C(O)(c3ccccc3)c3ccccc3)CC2)cc1 (centres undefined) [Fexofenadine hydrochloride],21.1%,27.2%,36.6%
CC(C)C(=O)Nc1ccc([N+](=O)[O-])c(C(F)(F)F)c1 [Flutamide],4.94%,-8.02%,5.09%
C=C[C@H]1CN2CC[C@H]1C[C@H]2[C@H](O)c1ccnc2ccc(OC)cc12 [Quinine sulfate],50.3%,42.6%,69.8%
NC(N)=NC(N)=Nc1cccc(Cl)c1 [1-(m-Chlorophenyl)-biguanide hydrochloride],41.1%,40%,59.2%
"OC[C@H]1NC[C@@H](O)[C@@H]1O [1,4-Dideoxy-1,4-imino-D-arabinitol]",36.1%,43.4%,60.5%

SMILES,general growth inhibition [1],growth inhibition [2],growth inhibition [3]
"Clc1ccc(C(c2ccccc2Cl)C(Cl)Cl)cc1 (centres undefined) [1-(2-Chlorophenyl)-1-(4-chlorophenyl)-2,2-dichloroethane]",29%,33.6%,46.7%
"N[C@H](C(=O)O)[C@H]1C[C@@H]1C(=O)O [(2S,1'S,2'S)-2-(carboxycyclopropyl)glycine]",42.3%,41.8%,65.8%
C[C@H](c1ccc(F)cc1CCCC(=O)O)N(c1cc(F)ccc1F)S(=O)(=O)c1ccc(Cl)cc1,57.1%,24.5%,56.3%
NC(=O)N1c2ccccc2C=Cc2ccccc21 [Carbamazepine],38.8%,40.3%,55.3%
CO/N=C(\C(=O)N[C@@H]1C(=O)N2C(C(=O)O)=C(COC(C)=O)CS[C@H]12)c1csc(N)n1 [Cefotaxime sodium],48.7%,48.2%,65.6%
NOCC(=O)O [O-(Carboxymethyl)hydroxylamine hemihydrochloride],18%,7.78%,40.2%
CCCNC(C)C(=O)Nc1ccccc1C (centres undefined) [Prilocaine hydrochloride],55.8%,49.5%,69.1%
Clc1ccc(N2CCN(Cc3cc4ccccn4n3)CC2)cc1,50.3%,35.9%,48.3%
CN(C)CCOC(C)(c1ccccc1)c1ccccn1 (centres undefined) [Doxylamine succinate],39.5%,42%,67.6%
Nc1ncnc2c1ncn2[C@@H]1O[C@H](CO)[C@@H](O)[C@H]1O [Adenosine],49.5%,40.9%,57.5%
O=C(Nc1cc(C(F)(F)F)cc(C(F)(F)F)c1)Nc1c(Br)cc(Br)cc1-c1nn[nH]n1,17.4%,10.2%,36.1%
O=c1c(O)c(-c2ccc(O)cc2O)oc2cc(O)cc(O)c12 [Morin],49.1%,42.3%,63.2%
CCc1cccc2c3c([nH]c12)C(CC)(CC(=O)O)OCC3 (centres undefined) [Etodolac],3.67%,17.4%,31.3%
Nc1nc2c(ncn2COCCO)c(=O)[nH]1 [Acyclovir],48.5%,48.5%,67.9%
CCCOc1ccccc1-c1nc2[nH]nnc2c(=O)[nH]1 [Zaprinast],46.5%,44.7%,72.8%
O=C1OC(=O)[C@H]2[C@@H]1[C@@H]1CC[C@H]2O1 [Norcantharidin],34.6%,39.6%,63.1%
N=C(N)N/N=C/c1c(Cl)cccc1Cl [Guanabenz acetate],25.1%,33.5%,63.3%
NC(CCCP(=O)(O)O)C(=O)O (stereo not drawn) [D(-)-2-Amino-5-phosphonopentanoic acid],34.4%,40.7%,60.5%
C=C1C(=O)O[C@H]2[C@H]1CC/C(C)=C/CC[C@@]1(C)O[C@@H]21 [Parthenolide],76.7%,68.1%,67.3%
O=C1/C(=C/c2cccs2)CC/C1=C\c1cccs1,43%,35.8%,41.7%
C=CC[C@H](N)C(=O)O [L-allylglycine],37%,35.1%,50%
Cn1ccnc1 [1-Methylimidazole],51.2%,38.9%,61.4%

# Part of the list above, set out differently:
SMILES	general growth inhibition [1]	growth inhibition [2]	growth inhibition [3]
Nc1ncnc2c1ncn2[C@@H]1O[C@H](CO)[C@@H](O)[C@H]1O [Adenosine]	49.5%	40.9%	57.5%
Cn1ccnc1 [1-Methylimidazole]	51.2%	38.9%	61.4%
